Source: US11090319B2, “Therapeutic uses of pharmaceutical compositions comprising cyclic boronic acid ester derivatives” (Melinta Subsidiary Corp., priority 2010, dated 2021)
The name of at least one read-out is uncertain.

Tests used:
EC1007 KPC-3 = format: cell-based, Escherichia coli
[1] = tested on: strains expressing class A ESBLs; format: cell-based
[2] = tested on: strains expressing class C and D enzymes; format: cell-based

SMILES	AZT MPC4 KPC-3 EC1007 (EC1007 KPC-3)	AZT MPC4 CTX-M-14 KP1005 [1]	AZT MPC4 CTX-M-15 KP1009 [1]	AZT MPC4 SHV-5 ec308 [1]	AZT MPC4 SHV-12 KP1010 [1]	AZT MPC4 SHV-18 KP1012 [1]	AZT MPC4 TEM-10 EC1009 [1]	AZT MPC4 TEM-10 ec302 [1]	AZT MPC4 TEM-26 ec304 [1]	AZT MPC@4 CMY-6 EC1010 [2]	AZT MPC@4 ECL1002 [2]	AZT MPC@4 OXA-2, KPX1001 [2]	AZT MPC@4 OXA-10, qnrB4 KP1007 [2]	AZT MPC@4 PAM2035 [2]
NCCC(=O)N[C@H]1CC[C@@H](CC(=O)O)OB1O [Compound 34, 2-((3R,6S)-3-(3-aminopropanamido)-2-hydroxy-1,2-oxaborinan-6-yl)acetic acid]	X (key: X: MPC@4 of less than 5 μg/mL; Y: MPC@4 of 5 μg/mL to 20 μg/mL; Z: MPC@4 of greater than 20 μg/mL)	Z (key: X: MPC@4 of less than 5 μg/mL; Y: MPC@4 of 5 μg/mL to 20 μg/mL; Z: MPC@4 of greater than 20 μg/mL)	Z (key: X: MPC@4 of less than 5 μg/mL; Y: MPC@4 of 5 μg/mL to 20 μg/mL; Z: MPC@4 of greater than 20 μg/mL)	Z (key: X: MPC@4 of less than 5 μg/mL; Y: MPC@4 of 5 μg/mL to 20 μg/mL; Z: MPC@4 of greater than 20 μg/mL)	Z (key: X: MPC@4 of less than 5 μg/mL; Y: MPC@4 of 5 μg/mL to 20 μg/mL; Z: MPC@4 of greater than 20 μg/mL)	Z (key: X: MPC@4 of less than 5 μg/mL; Y: MPC@4 of 5 μg/mL to 20 μg/mL; Z: MPC@4 of greater than 20 μg/mL)	Z (key: X: MPC@4 of less than 5 μg/mL; Y: MPC@4 of 5 μg/mL to 20 μg/mL; Z: MPC@4 of greater than 20 μg/mL)	Z (key: X: MPC@4 of less than 5 μg/mL; Y: MPC@4 of 5 μg/mL to 20 μg/mL; Z: MPC@4 of greater than 20 μg/mL)	Z (key: X: MPC@4 of less than 5 μg/mL; Y: MPC@4 of 5 μg/mL to 20 μg/mL; Z: MPC@4 of greater than 20 μg/mL)	Z (key: X: MPC@4 of less than 5 μg/mL; Y: MPC@4 of 5 μg/mL to 20 μg/mL; Z: MPC@4 of greater than 20 μg/mL)	Z (key: X: MPC@4 of less than 5 μg/mL; Y: MPC@4 of 5 μg/mL to 20 μg/mL; Z: MPC@4 of greater than 20 μg/mL)	Z (key: X: MPC@4 of less than 5 μg/mL; Y: MPC@4 of 5 μg/mL to 20 μg/mL; Z: MPC@4 of greater than 20 μg/mL)	Z (key: X: MPC@4 of less than 5 μg/mL; Y: MPC@4 of 5 μg/mL to 20 μg/mL; Z: MPC@4 of greater than 20 μg/mL)	Z (key: X: MPC@4 of less than 5 μg/mL; Y: MPC@4 of 5 μg/mL to 20 μg/mL; Z: MPC@4 of greater than 20 μg/mL)
N[C@@H](CCC(=O)N[C@H]1CC[C@@H](CC(=O)O)OB1O)C(=O)O [Compound 35, (S)-2-amino-5-((3R,6S)-6-(carboxymethyl)-2-hydroxy-1,2-oxaborinan-3-ylamino)-5-oxopentanoic acid]	X (key: X: MPC@4 of less than 5 μg/mL; Y: MPC@4 of 5 μg/mL to 20 μg/mL; Z: MPC@4 of greater than 20 μg/mL)	Z (key: X: MPC@4 of less than 5 μg/mL; Y: MPC@4 of 5 μg/mL to 20 μg/mL; Z: MPC@4 of greater than 20 μg/mL)	Z (key: X: MPC@4 of less than 5 μg/mL; Y: MPC@4 of 5 μg/mL to 20 μg/mL; Z: MPC@4 of greater than 20 μg/mL)	Z (key: X: MPC@4 of less than 5 μg/mL; Y: MPC@4 of 5 μg/mL to 20 μg/mL; Z: MPC@4 of greater than 20 μg/mL)	Z (key: X: MPC@4 of less than 5 μg/mL; Y: MPC@4 of 5 μg/mL to 20 μg/mL; Z: MPC@4 of greater than 20 μg/mL)	Z (key: X: MPC@4 of less than 5 μg/mL; Y: MPC@4 of 5 μg/mL to 20 μg/mL; Z: MPC@4 of greater than 20 μg/mL)	Z (key: X: MPC@4 of less than 5 μg/mL; Y: MPC@4 of 5 μg/mL to 20 μg/mL; Z: MPC@4 of greater than 20 μg/mL)	Z (key: X: MPC@4 of less than 5 μg/mL; Y: MPC@4 of 5 μg/mL to 20 μg/mL; Z: MPC@4 of greater than 20 μg/mL)	Z (key: X: MPC@4 of less than 5 μg/mL; Y: MPC@4 of 5 μg/mL to 20 μg/mL; Z: MPC@4 of greater than 20 μg/mL)	Z (key: X: MPC@4 of less than 5 μg/mL; Y: MPC@4 of 5 μg/mL to 20 μg/mL; Z: MPC@4 of greater than 20 μg/mL)	Z (key: X: MPC@4 of less than 5 μg/mL; Y: MPC@4 of 5 μg/mL to 20 μg/mL; Z: MPC@4 of greater than 20 μg/mL)	Z (key: X: MPC@4 of less than 5 μg/mL; Y: MPC@4 of 5 μg/mL to 20 μg/mL; Z: MPC@4 of greater than 20 μg/mL)	Z (key: X: MPC@4 of less than 5 μg/mL; Y: MPC@4 of 5 μg/mL to 20 μg/mL; Z: MPC@4 of greater than 20 μg/mL)	Z (key: X: MPC@4 of less than 5 μg/mL; Y: MPC@4 of 5 μg/mL to 20 μg/mL; Z: MPC@4 of greater than 20 μg/mL)
